Values from PubChem BioAssay AID686938 (Drosophila RNAi Screening Center, 2013)

Aim: 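Looking for CRAC channel components and the factors controlling them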 (primary screen)
Cell system: Drosophila S2R+ cells
Reagents: long dsRNA against Drosophila genes, about 0.25 µg dsRNA per well, roughly 10,000 cells
Time to read-out: 5 days of knock-down before the calcium assay
Conditions: thapsigargin (SERCA pump blocker) to empty calcium stores; entry signal taken 4 min after adding it
Measured: 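Duplicate raw fluo-4 intensities per well from a plate reader, at rest and four minutes after thapsigargin emptied calcium stores; entry-to-rest ratio filled for only some wells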
Reading the numbers: calcium entry signal: higher = stronger calcium signal after store depletion; entry to resting ratio: higher = more calcium entry relative to resting level; resting calcium signal: higher = higher resting calcium signal
Call rule: 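Called when the plate z-score of the entry-to-rest ratio, mean of duplicates, falls below −3; wells with low overall dye signal (Fmax z below −2) or more than five off-targets excluded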
Calls: active = strongly reduced calcium entry; inactive = no strong reduction
In all, the deposit lists about 23,000 reagents; shown is an unselected part of those with a known target gene and a result. Of all reagents, 75 (0.33%) are marked active. 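Raw plate signals without normalisation; calls rest on plate z-scores that were not deposited; ratio present for only 364 wells.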 Entries without a mark were called inactive. A plus sign joins genes that one reagent is predicted to hit. Not stated in the record: the dose of the treatment.

target gene	DRSC id	calcium entry signal, replicate 1 (fluorescence units)	calcium entry signal, replicate 2 (fluorescence units)	entry to resting ratio	resting calcium signal, replicate 1 (fluorescence units)	resting calcium signal, replicate 2 (fluorescence units)
CYTB (retired record)	DRSC21272	3.21e7	3.42e7		1.89e7	1.53e7
Syt7	DRSC17130	5.57e7	6.07e7	2.2	2.55e7	2.32e7
Syt7	DRSC17159	4.94e7	5.38e7	2	2.43e7	2.27e7
Gbp2	DRSC06069	2.24e7	2.27e7		1.01e7	1.12e7
CG9395	DRSC03218	2.51e7	1.76e7		1.16e7	8.82e6
CG14130	DRSC10134	2.87e7	4.69e7		1.46e7	1.81e7
CG10979	DRSC12153	4.51e7	3.42e7		2.19e7	1.77e7
CG1387	DRSC17904	2.61e7	2.49e7		1.20e7	1.21e7
stck	DRSC17070	3.81e7	3.31e7		1.86e7	1.68e7
Asap	DRSC06493	4.97e7	4.34e7		2.18e7	1.87e7
Asap	DRSC06830	4.25e7	3.28e7		1.74e7	1.65e7
dpr1	DRSC05906	2.62e7	2.69e7		1.18e7	1.16e7
dpr1	DRSC06399	2.71e7	3.06e7		1.32e7	1.35e7
FoxK	DRSC09859	3.95e7	3.06e7		2.48e7	1.37e7
CG33301	DRSC02778	2.54e7	3.84e7		1.05e7	1.76e7
CG5506	DRSC10511	3.61e7	4.90e7		1.74e7	1.85e7
Jhbp14	DRSC01988	4.97e7	3.07e7		2.11e7	1.51e7
CG13455	DRSC10002	3.47e7	6.33e7		1.80e7	2.42e7
Ccdc58 + CG34116	DRSC10105	3.03e7	4.72e7		1.54e7	2.07e7
CG17141	DRSC15178	5.02e7	5.31e7		2.27e7	2.09e7
mRpL16	DRSC18550	2.64e7	4.00e7		1.13e7	1.75e7
CG32260	DRSC08084	5.83e7	4.17e7		2.92e7	1.99e7
Cpr64Ab	DRSC08461	3.56e7	3.15e7		1.85e7	1.54e7
NAAT1	DRSC18300	1.90e7	2.22e7		1.02e7	1.07e7
mRpL41	DRSC06257	4.05e7	4.32e7		1.91e7	1.80e7
CG8353	DRSC03084	3.62e7	4.10e7		1.82e7	1.95e7
TotB	DRSC15842	3.95e7	4.72e7		6.41e7	2.13e7
Hpf1	DRSC12202	3.47e7	3.99e7		1.59e7	1.82e7
Noc3	DRSC12535	2.85e7	3.35e7		1.49e7	1.67e7
CG13408	DRSC13534	4.22e7	2.73e7		2.19e7	1.35e7
CG13408	DRSC14584	3.90e7	5.28e7		5.33e7	2.20e7
tobi	DRSC14435	2.96e7	4.64e7		1.60e7	2.08e7
CG9330	DRSC11066	2.95e7	4.63e7		1.46e7	2.00e7
CG18596	DRSC15355	4.00e7	3.25e7		1.90e7	1.49e7
CG5002	DRSC06911	3.23e7	2.60e7		1.40e7	1.29e7
CG11755	DRSC14374	3.56e7	3.41e7		1.51e7	1.53e7
CAH16	DRSC15371	3.24e7	6.25e7		1.78e7	2.36e7
CG11920	DRSC14439	2.72e7	2.43e7		1.61e7	1.32e7
CG12224	DRSC14480	4.55e7	3.72e7		2.08e7	1.86e7
Srrm1	DRSC09835	3.42e7	4.51e7		1.74e7	1.96e7
toy	DRSC17222	4.86e7	4.87e7		2.09e7	2.08e7
ClC-b	DRSC07220	2.92e7	3.54e7		1.54e7	1.76e7
GstD7	DRSC16688	2.75e7	2.00e7		1.39e7	1.02e7
CG4459	DRSC15582	3.79e7	3.84e7		5.00e7	1.66e7
Fit1	DRSC08450	5.80e7	4.67e7		4.08e7	1.96e7
CG11858	DRSC14412	2.89e7	2.72e7		1.68e7	1.32e7
CG43064	DRSC09133	5.05e7	3.67e7		2.66e7	1.70e7
CG32148	DRSC09338	4.15e7	4.63e7		2.01e7	2.47e7
dbf	DRSC02570	3.55e7	4.43e7		1.73e7	1.86e7
Lamp1	DRSC03727	3.92e7	3.64e7		1.94e7	1.58e7
tnc	DRSC14647	4.49e7	5.94e7		2.04e7	2.44e7
CG12983	DRSC11692	3.23e7	5.65e7		1.65e7	2.22e7
rhea	DRSC11300	3.38e7	4.83e7		1.58e7	2.11e7
CG43219	DRSC11472	2.71e7	4.55e7		1.43e7	2.07e7
CG11693	DRSC14353	3.16e7	3.45e7		1.65e7	1.71e7
Ubr3	DRSC17987	3.16e7	3.60e7		1.96e7	2.16e7
Ubr3	DRSC17997	2.83e7	3.16e7		1.87e7	1.91e7
CG34107	DRSC14554	3.55e7	2.86e7		1.82e7	1.48e7

Copied from the listing (8 entries):
target gene	DRSC id	calcium entry signal, replicate 1 (fluorescence units)	calcium entry signal, replicate 2 (fluorescence units)	entry to resting ratio	resting calcium signal, replicate 1 (fluorescence units)	resting calcium signal, replicate 2 (fluorescence units)
mRpL16	DRSC18550	2.64e7	4.00e7		1.13e7	1.75e7
CG32260	DRSC08084	5.83e7	4.17e7		2.92e7	1.99e7
Cpr64Ab	DRSC08461	3.56e7	3.15e7		1.85e7	1.54e7
NAAT1	DRSC18300	1.90e7	2.22e7		1.02e7	1.07e7
mRpL41	DRSC06257	4.05e7	4.32e7		1.91e7	1.80e7
CG8353	DRSC03084	3.62e7	4.10e7		1.82e7	1.95e7
TotB	DRSC15842	3.95e7	4.72e7		6.41e7	2.13e7
Hpf1	DRSC12202	3.47e7	3.99e7		1.59e7	1.82e7
